This assay in a line: qHTS Assay for Modulators of Lamin A Splicing. Particulars: HeLa LMNA splicing GFP/RFP minigene ratio, 48 h. The method, boiled down:
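Read-out is the ratio of GFP to DsRed2 object intensity, acquired by 488 nm laser-scanning cytometry on HeLa lamin A-EGFP minigene reporter cells. Compound incubation 48 hrs at 37 °C in Opti-MEM with 2% FBS; DMSO 0.5% final.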
In general terms: Quantitative high-throughput screening tests each substance at several concentrations.

[1] abbreviates: measured here: GFP splicing reporter channel.
[2] abbreviates: measured here: RFP viability control channel.

This is one part of the list. Further columns of the screen follow, without active or inactive calls. Compounds called inactive in the main read-out are mostly missing here. Words in brackets tell the shape of the fitted curve; partial curves, single points and poor fits give uncertain potencies.

Drawing on PubChem BioAssay AID1487 (National Center for Advancing Translational Sciences (NCATS), 2009), this text covers AC50 for 34 molecules.

By AC50 is commonly meant the midpoint of the concentration-response curve, whichever way the signal moves.

Regarding `O=C(CSc1ccc(-c2ccco2)nn1)N1CCCCCC1`, the AC50 under setting [1] was 0.0316 µM [rising, full curve, poor fit].
Take `C=CCn1c(C)cc(C(=O)COc2ccc(C)nc2[N+](=O)[O-])c1C`: the concentration at half-maximal activity (AC50) under setting [1] was 8.91 µM [rising, partial curve, poor fit] and the AC50 under setting [2] was 17.8 µM [rising, partial curve].
For `CCOC(=O)C1CCN(C(c2cccc(F)c2)c2c(O)cc(C)n(Cc3ccco3)c2=O)CC1` (configuration not stated), under setting [2], the AC50 is 8.91 µM [rising, partial curve, poor fit].
As to `CSc1nc(-c2ccccc2)c(-c2ccccc2)[nH]1`, the half-maximal activity concentration (AC50) by setting is: under setting [1], 10 µM [falling, partial curve]; under setting [2], 22.4 µM [falling, partial curve, poor fit].
As for `COc1ccc(C2CC(c3cccs3)=NN2S(C)(=O)=O)cc1OC` (configuration not stated), the AC50 under setting [2] is 0.0224 µM [falling, full curve, poor fit].
For the molecule `Cc1cccc(C(=O)Nc2scc(CC(C)C)c2C(=O)O)c1`, the AC50 by setting is: under setting [1], 14.1 µM [rising, single point]; under setting [2], 22.4 µM [rising, single point].
`CCC(=O)Nc1cccc(C(=O)/C=C/c2ccccc2)c1`: the AC50 runs as follows: under setting [1], 0.282 µM [falling, full curve]; under setting [2], 0.141 µM [falling, full curve].
As for `CCCc1ccc(S(=O)(=O)NCCc2ccncc2)cc1`, the AC50 under setting [2] is 12.6 µM [rising, partial curve].
In the case of `Cc1ccccc1NC(=O)c1ccc([N+](=O)[O-])o1`, the AC50 was 22.4 µM [falling, single point] under setting [1] and 35.5 µM [falling, partial curve] under setting [2].
As for `O=C(Nc1ccc(C(F)(F)F)cc1Cl)c1ccc(Cn2cc(Br)cn2)o1`, under setting [2], the AC50 was 14.1 µM [rising, single point].
In the case of `CC(=O)c1ccc(NC(=S)N(C)C2CCN(C)CC2)cc1`, the AC50 is 2.51 µM [rising, partial curve, poor fit] under setting [1] and 15.8 µM [rising, partial curve, poor fit] under setting [2].
`Cc1cc(SCC(=O)c2ccccc2)n2nc(C)nc2n1`: under setting [2], the AC50 is 15.8 µM [rising, single point].
Regarding `COc1cccc(C2=NOC(C(=O)Nc3ccccc3SC)C2)c1` (configuration not stated), under setting [2], the AC50 was 22.4 µM [rising, single point].
As to `Cc1ccc(Cl)cc1NC(=O)Nc1cccs1`, the AC50 reads like this: under setting [1], 1.26 µM [rising, partial curve]; under setting [2], 0.794 µM [rising, full curve, poor fit].
Take `COc1cccc(-c2nnc3sc(-c4ccccn4)nn23)c1`: the AC50 under setting [2] was 17.8 µM [rising, single point].
With `O=C1CS/C(=N/N=C/c2ccncc2)N1`, the AC50 under setting [2] is 0.398 µM [falling, full curve, poor fit].
`C/C(CC(=O)NC(C)(C)C)=N\NC(=O)COc1ccc(C)cc1Br`: under setting [1], the AC50 was 2 µM [rising, partial curve].
Consider `COCCn1c(=O)[nH]c2cc(C(=O)NCCN3CCN(c4cccc(Cl)c4)CC3)ccc2c1=O`, for which the AC50 runs as follows: under setting [1], 14.1 µM [rising, single point]; under setting [2], 25.1 µM [rising, single point].
Take `CCOc1ccc(NS(=O)(=O)c2ccc3[nH]c4c(c3c2)CCCC4)cc1`: the AC50 is, setting by setting: under setting [1], 35.5 µM [falling, single point]; under setting [2], 35.5 µM [falling, single point].
Take `CCCCNC(C(=O)Nc1ccc([N+](=O)[O-])cc1Br)c1ccccc1` (configuration not stated): the AC50 is 8.91 µM [rising, partial curve] under setting [1] and 7.94 µM [rising, partial curve, poor fit] under setting [2].
For `COc1ccc(-c2oc3ccccc3c(=O)c2O)cc1OC`, the AC50 reads like this: under setting [1], 22.4 µM [falling, single point]; under setting [2], 17.8 µM [falling, single point].
Regarding `Cc1nn2c(=O)cc(COC(=O)c3cccc(NC(=O)c4cccs4)c3)nc2s1`, the AC50 under setting [1] was 12.6 µM [falling, partial curve].
As to `O=C(/C=C\c1ccc(-c2cccc([N+](=O)[O-])c2)o1)N1CCOCC1`, the concentration at half-maximal activity (AC50) under setting [2] was 25.1 µM [rising, single point].
As to `CCCCCCCCCC(=O)Nn1cnc2ccccc2c1=O`, under setting [2], the AC50 was 0.112 µM [falling, full curve, poor fit].
On to `Cc1c(C(=O)Oc2cccc3ccccc23)cnn1-c1ccccc1`, for which the AC50 under setting [2] was 35.5 µM [rising, single point].
Still for that read-out and setting: with `COc1ccc(Cl)cc1NC(=O)CN1CCCC1` the figure was 0.0708 µM [falling, full curve, poor fit].
With `Cc1cc2cc(CN(CCN(C)C)C(=S)NCc3ccco3)c(=O)[nH]c2cc1C`, the AC50 under setting [1] was 0.0794 µM [falling, full curve, poor fit] and the AC50 under setting [2] is 0.0562 µM [falling, full curve, poor fit].
As for `Cc1cc([N+](=O)[O-])ccc1NC1CCCC1`, the AC50 was 17.8 µM [rising, single point] under setting [1] and 22.4 µM [rising, single point] under setting [2].
With `CN(C(=O)COC(=O)c1ccc2c(c1)OCO2)C1CCS(=O)(=O)C1` (configuration not stated), the AC50 under setting [2] was 0.01 µM [falling, full curve, poor fit].
With `Cc1cc(C(=O)N/N=C/c2cc(Br)cc([N+](=O)[O-])c2O)c2ccccc2n1`, the AC50 runs as follows: under setting [1], 11.2 µM [rising, single point]; under setting [2], 31.6 µM [rising, single point].
With `O=C(CSc1n[nH]c(-c2ccccc2)n1)Nc1ncc(Br)cc1Br`, the AC50 by setting is: under setting [1], 14.1 µM [rising, single point]; under setting [2], 17.8 µM [rising, single point].
As for `COCC1CCN(C(=O)c2cc(COc3ccc4ncccc4c3)on2)CC1`, the AC50 under setting [1] was 0.891 µM [falling, full curve, poor fit] and the AC50 under setting [2] is 1 µM [falling, full curve, poor fit].
As for `Cc1ccc(Cn2ncc3c(N4CCN(c5ccc(C)cc5)CC4)ncnc32)cc1`, the AC50 runs as follows: under setting [1], 0.282 µM [rising, full curve]; under setting [2], 0.224 µM [rising, full curve].
Consider `S=C(Nc1cccc(Cl)c1)N1CCN(Cc2ccccc2)CC1`, for which the AC50 is 12.6 µM [rising, partial curve, poor fit] under setting [1] and 15.8 µM [rising, partial curve] under setting [2].
